The list shows a part of the results.

By UniProt entry, the sequences of proteins in these tests, tags left out.
UniProt Q0JBA9, entry or part of it: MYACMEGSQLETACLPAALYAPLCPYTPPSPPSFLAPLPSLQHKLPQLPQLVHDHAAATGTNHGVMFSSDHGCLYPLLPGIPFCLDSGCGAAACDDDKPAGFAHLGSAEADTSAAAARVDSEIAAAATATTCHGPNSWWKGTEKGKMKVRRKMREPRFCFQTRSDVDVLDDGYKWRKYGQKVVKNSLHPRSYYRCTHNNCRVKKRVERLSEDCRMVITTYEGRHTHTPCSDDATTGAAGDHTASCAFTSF

This passage reports binding signal results from article PMC7819943, “Rice protein-binding microarrays: a tool to detect cis-acting elements near promoter regions in rice”.

This assay addresses OsWRKY34 (Oryza sativa, UniProt Q0JBA9 1-250). The assay can be described thus: protein-binding microarray (RPBM); PBS, 2% BSA, 51.3 ng/ul salmon testes DNA, 50 uM zinc acetate, 200 nM TF, 25 C, 1 h; high values mean tight binding. Particulars: protein: recombinant; tags: N-terminal polyhistidine and DsRed monomer fusion (pET32a); label: CyDye5-dUTP incorporated in the synthesized complementary strand; 3' TTTTT single-stranded linker to array surface; dsDNA, one strand shown. An outline of the steps:
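Binding signal is reported as fluorescence intensity per feature (arbitrary units) from an Axon 4000B scanner. Incubation used 200 nM of each Ni–NTA-purified, N-terminally polyhistidine- and DsRed-fused transcription factor from E. coli BL21-CodonPlus on a double-stranded custom Agilent array for 1 h at 25 °C, with 50 µM zinc acetate in the buffer, followed by washing.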
“GCGTTACAGTTGGAGTGGATTATTTTTTTTCCTTTGTTTTCGGAGTCACCTAGTGCAG”: the binding signal is 9850 fluorescence intensity (a.u.).

As to “CTCCCCACCGCATCGCCATCGCGTCTCCTCGCCGTCCCACCGGAGTCACCTAGTGCAG”, the binding signal was 8230 fluorescence intensity (a.u.).

Take “CTCCACCACGCGCGCCGCATCCATCTCCGCCAAAATCCACCGGAGTCACCTAGTGCAG”: the binding signal was 10700 fluorescence intensity (a.u.).

For the sequence “GACAAATATGAGATGGGGTGGTCTGTTTGGATACTTTGCACGGAGTCACCTAGTGCAG”, the binding signal is 8510 fluorescence intensity (a.u.).

With “CGTGTTCATATGACTAGGAGGTGTGTGTAATGTCTATGTTCGGAGTCACCTAGTGCAG”, the binding signal is 10500 fluorescence intensity (a.u.).

“TTATCCATTTACAGCCCGCTTCTCATCTATCTCCTCTACTCGGAGTCACCTAGTGCAG”: the binding signal is 9960 fluorescence intensity (a.u.).

Turning to “GAAATATAGACACTTCCACCCATTTGCACCGCCATTTCGACGGAGTCACCTAGTGCAG”, the binding signal was 9450 fluorescence intensity (a.u.).

Regarding “TGGGCCGAATAGGTACGCACGTGGGGAGGGGCGCGCAGGGCGGAGTCACCTAGTGCAG”, the binding signal is 9390 fluorescence intensity (a.u.).

As to “CTTCCTTACCTCGCATGCACGTACGACCAATTTCCGTTTCCGGAGTCACCTAGTGCAG”, the binding signal is 11000 fluorescence intensity (a.u.).

As to “CCTGCTCTTATTTCTCTTCCAGCTCATCACTTCTTCTTGCCGGAGTCACCTAGTGCAG”, the binding signal was 10400 fluorescence intensity (a.u.).

For “CTATCACGACACGTTACATTGGTCTCCTCTCGCGCTTACTCGGAGTCACCTAGTGCAG”, the binding signal is 10900 fluorescence intensity (a.u.).

“CGCGCTTTGGCATTTCTTTTCTTTTGTTTTTCTTTTTTTTCGGAGTCACCTAGTGCAG”: the binding signal was 13700 fluorescence intensity (a.u.).

Turning to “CTGTGCTGCGTTCACCTATGTTTCTCGATATCACGCCTTTCGGAGTCACCTAGTGCAG”, the binding signal is 10300 fluorescence intensity (a.u.).

Consider “TCTCCCTATTTTCTCGCAATTTTTTCTCTTCTCTCGGCCGCGGAGTCACCTAGTGCAG”, for which the binding signal was 8530 fluorescence intensity (a.u.).

Consider “CATTATCTTTGCCTGCACACCCTTTTTTTCCCCTGATTACCGGAGTCACCTAGTGCAG”, for which the binding signal is 9560 fluorescence intensity (a.u.).

With “TCGCCGTCGCTCTTGTCGCCGTCGCGTCGCCATCCTGTCGCGGAGTCACCTAGTGCAG”, the binding signal is 8960 fluorescence intensity (a.u.).

For the sequence “TCTGAATCTTGAGCCATCATTTTACCTCAGTTTTCTGATTCGGAGTCACCTAGTGCAG”, the binding signal was 9750 fluorescence intensity (a.u.).

Take “AGGGGTGCTAATTGAGCCTATTTCGGGTGGGGCTCACTGACGGAGTCACCTAGTGCAG”: the binding signal was 15300 fluorescence intensity (a.u.).

Turning to “AGTCTTCTTAATGCATTGATCCCCTGTCCTCTTGCCAAAACGGAGTCACCTAGTGCAG”, the binding signal was 9820 fluorescence intensity (a.u.).

For “ACTGCCTCCTCACCATCCTATCTCGTCTCGTCTCCTTCTCCGGAGTCACCTAGTGCAG”, the binding signal was 11000 fluorescence intensity (a.u.).

Take “TCTCCTTTCATACATGCTGTTGCTGCCACCACTACTGCTCCGGAGTCACCTAGTGCAG”: the binding signal is 9680 fluorescence intensity (a.u.).

Take “GGTCCGCGTGGGTCCCACCATTATTATTATTATTATTTTTCGGAGTCACCTAGTGCAG”: the binding signal is 10900 fluorescence intensity (a.u.).

“TTGCGGGTACTGTTGCCTATTTATATGACCATACTGTTTGCGGAGTCACCTAGTGCAG”: the binding signal is 8040 fluorescence intensity (a.u.).

On to “GAGATCTCCATGATTGCACTCTTTTTTTTTAAGTTCTTTTCGGAGTCACCTAGTGCAG”, for which the binding signal was 10600 fluorescence intensity (a.u.).

Turning to “ATGTTTCAAATTGTATGTGTTTATTACTACTGCTATCTTACGGAGTCACCTAGTGCAG”, the binding signal was 10100 fluorescence intensity (a.u.).

Regarding “CATCCAGCATGATGCAAAAGTTTGAAATTTTAGTACTTTTCGGAGTCACCTAGTGCAG”, the binding signal was 12300 fluorescence intensity (a.u.).

For “GCCACTATTCACTGTCCGCCAACCGTTCGATCCCGTCTACCGGAGTCACCTAGTGCAG”, the binding signal is 11700 fluorescence intensity (a.u.).

Take “TTTTCCTTTCTTTTTTTGGACTGTTTTACCCCTGGCCCCACGGAGTCACCTAGTGCAG”: the binding signal is 11700 fluorescence intensity (a.u.).

Regarding “ATGTGATGTCTGTCTTTGTCTGTTGTGTCTTTGCTGCATGCGGAGTCACCTAGTGCAG”, the binding signal was 8180 fluorescence intensity (a.u.).

In the case of “TTCCTCTATCCTTGATTGATTCTTTCTTTTATTGTTTTTTCGGAGTCACCTAGTGCAG”, the binding signal is 13200 fluorescence intensity (a.u.).

For the sequence “TGAACAAGTGCAAAACTGCTTCTCGTTCGGTATTCTTTCACGGAGTCACCTAGTGCAG”, the binding signal is 8090 fluorescence intensity (a.u.).

Take “GGCCACTCGTGTCTCTCTCTCTCTCTCTCATCTCTAATTTCGGAGTCACCTAGTGCAG”: the binding signal was 8870 fluorescence intensity (a.u.).

As for “GCAACCATGCAATTCTGTATTTATGTTAACCTTGTTGTTTCGGAGTCACCTAGTGCAG”, the binding signal was 9260 fluorescence intensity (a.u.).

On to “GCCTCCGCCTCCGTGCGCAACCGCCGCCTCGTCCGCGACCCGGAGTCACCTAGTGCAG”, for which the binding signal was 11300 fluorescence intensity (a.u.).

In the case of “GCCGCCGACCGCCACATATCCACACACCTCGACACGACGGCGGAGTCACCTAGTGCAG”, the binding signal is 8950 fluorescence intensity (a.u.).

“CTGCCACCACCAGCTAGCACTGACCCGCCTCCTCCTTTATCGGAGTCACCTAGTGCAG”: the binding signal was 9400 fluorescence intensity (a.u.).

As for “TCTCAATTGCACCTCATTTAATCCTCATTTTTCATCTTTTCGGAGTCACCTAGTGCAG”, the binding signal is 11800 fluorescence intensity (a.u.).

Take “CGTCTGTTCTCGTCTTCAGCTGAATCTGATTTTGTTTACACGGAGTCACCTAGTGCAG”: the binding signal is 11200 fluorescence intensity (a.u.).

On to “CTCCTCACTCCTATACTCACCTCATCCCTATCGTCTTGCCCGGAGTCACCTAGTGCAG”, for which the binding signal is 8610 fluorescence intensity (a.u.).

As for “TGATTTTTCGTACCCAACTTTGATCGTCCGTTTTATTTGACGGAGTCACCTAGTGCAG”, the binding signal is 10200 fluorescence intensity (a.u.).

In the case of “CGAACAGTCAAACATGTTTAAAAAAGTCAACGGCGTCAAACGGAGTCACCTAGTGCAG”, the binding signal was 9670 fluorescence intensity (a.u.).

“AGTCTCTTTGACTTTTTACTAGTTAAAATTTGACCAAGTTCGGAGTCACCTAGTGCAG”: the binding signal was 13600 fluorescence intensity (a.u.).
